In assay [1] the target is T1, Glideosome-Associated Protein 45 (Toxoplasma gondii (endogenous in tachyzoites)) (UniProt Q7Z289).
T1 sequence: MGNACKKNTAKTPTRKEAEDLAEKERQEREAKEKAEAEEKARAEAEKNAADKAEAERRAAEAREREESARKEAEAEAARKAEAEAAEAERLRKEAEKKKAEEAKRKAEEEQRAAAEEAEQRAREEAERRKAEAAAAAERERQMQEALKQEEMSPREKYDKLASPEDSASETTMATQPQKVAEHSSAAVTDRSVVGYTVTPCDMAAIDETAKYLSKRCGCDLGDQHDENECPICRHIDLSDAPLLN
The experiment in a line: affinity purification with mass spectrometry; anti-GAP45 IgG cross-linked to Sepharose 4B; 1:1 mixture of lysates of un-stimulated (light) and 1% ethanol-stimulated (heavy, SILAC) tachyzoites in 20 mM HEPES pH 7.4, 150 mM NaCl, 1% Triton X-100, 0.5% NP-40; 1 h at 4°C; eluates stained with Sypro Ruby and analysed by Orbitrap LC-MS/MS.

Sequences of proteins named here, by UniProt entry; tags and fusion partners are left off.
UniProt A0A125YP06: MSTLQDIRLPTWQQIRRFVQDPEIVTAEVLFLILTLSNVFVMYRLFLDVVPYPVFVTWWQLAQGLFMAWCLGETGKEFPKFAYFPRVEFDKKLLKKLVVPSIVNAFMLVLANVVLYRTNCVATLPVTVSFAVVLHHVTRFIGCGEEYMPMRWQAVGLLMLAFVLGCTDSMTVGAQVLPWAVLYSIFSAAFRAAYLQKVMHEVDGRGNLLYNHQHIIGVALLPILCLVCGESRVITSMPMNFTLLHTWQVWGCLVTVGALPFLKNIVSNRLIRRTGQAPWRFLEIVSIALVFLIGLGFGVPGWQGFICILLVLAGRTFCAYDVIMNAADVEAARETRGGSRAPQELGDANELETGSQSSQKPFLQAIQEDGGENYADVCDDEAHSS

Assay [2] addresses HA-tagged Myosin Light Chain 1 (Toxoplasma gondii). Description: affinity purification with mass spectrometry; anti-HA magnetic microbeads, lysate of MLC1-HA expressing parasites; eluted proteins stained with Sypro Ruby, bands identified by LC-MS/MS.

No constants are given. Whether binding was seen depends on the method and setting. In cells and extracts the contact can be indirect. Here binding means that the protein was enriched with, or labelled near, the bait; the list need not be complete.

Among the data in PMC3182922 are binding values, retold here.

Turning to “Glideosome-Associated Protein 40 (from UniProt A0A125YP06 1-385)”, in assay [1], the binding entry is reported as “binds”.
The same measure, in the same setting: the result for Glideosome-Associated Protein 50 reads “binds”; that for Myosin A (from UniProt O00934 1-831), “binds”.
Same read-out and setting: the result for Myosin Light Chain 1 reads “binds”.

B1: Glideosome-Associated Protein 45 (protein, UniProt Q7Z289 1-245)
chain: MGNACKKNTAKTPTRKEAEDLAEKERQEREAKEKAEAEEKARAEAEKNAADKAEAERRAAEAREREESARKEAEAEAARKAEAEAAEAERLRKEAEKKKAEEAKRKAEEEQRAAAEEAEQRAREEAERRKAEAAAAAERERQMQEALKQEEMSPREKYDKLASPEDSASETTMATQPQKVAEHSSAAVTDRSVVGYTVTPCDMAAIDETAKYLSKRCGCDLGDQHDENECPICRHIDLSDAPLLN
For B1, in assay [2], the binding entry is “binds”.
